In all, about 52,000 sequences went through this assay and about 210 (0.4%) were called active.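 The calls were made as follows: active = gene whose silencing raises cell survival under the drug, median off-target-corrected z-score across its silencing RNAs 2 or more; inactive = the rest.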 This is one part of the list.
Experiment: Resistance to Poly (ADP-Ribose) Polymerase inhibitor: Gene Identification via Genome-wide siRNA Screen
Conditions: mouse BRCA2 R2336H ES cells, olaparib, CellTiter-Glo viability; hits give high values
Procedure, shortened: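 Mouse BRCA2 R2336H ES cells were reverse-transfected with siRNA (20 nM final), treated at 48 h with 500 nM olaparib, and read by CellTiter-Glo after 72 h. Scores: MAD-based z per siRNA, median per gene, seed off-target correction.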

| Sequence | z-score |
| --- | --- |
| GGACCAUCCUACAUCGGUCTT against Fpgs | inactive: 0.054 |
| GGGUGCUUGCCAUUAACCCTT against Galnt14 | inactive: 0.166 |
| CCUCUACAACCUAAUUUAUTT against Abcd1 | inactive: 0.486 |
| GGAAGCACAUAGAAGCCAATT against Defb11 | inactive: -0.065 |
| CCAUGAGUGACCAAACAGGTT against Snx22 | inactive: 0.528 |
| GCGCAUUGUGCAGGAUAAATT against Tnpo2 | inactive: -0.144 |
| GACUGCUAAACAAUAUGCUTT against 4930506M07Rik | inactive: 0.608 |
| CAAACCCAUGUUCUAAAUGTT against Oog3 | inactive: 0.339 |
| CCAGCAUGCGUGAUGUCUATT against Gdi1 | inactive: -2.17 |
| GGGAGAGAGAAAAAGAAAATT against Park7 | inactive: -1.45 |
| GAUCCUCACGAAAUAGGUATT against GA_x5J8B7TQSKC-412-5 | inactive: -0.191 |
| GGUUACUGCUACCUAUAACTT against Ttid | inactive: -0.133 |
| CGCAGUCCUGUCAGACUUUTT against AJ430384 | inactive: 1.23 |
| GCACCUCUAUGAGAGGACATT against Anxa8 | inactive: 0.362 |
| GGCAAAUUCGAAAUAGACATT against Evx2 | inactive: 0.624 |
| GGCCUGUCCAGUGAUGAUGTT against 1810007M14Rik | inactive: -0.84 |
| CCCAUAAGUAUUAAAGUGGTT against Acdc | inactive: 1.08 |
| GGAAAAUGUCACUUUAUGGTT against Fcgr1 | inactive: 0.116 |
| CGCAUUUGAAAAAGAGUGGTT against Ndufs5 | inactive: 1.35 |
| GGAUGUUCUGUUCUUGAAGTT against Pgk1 | inactive: 0.266 |
| CCUCCAAGAUCACUGAACATT against 2410018L13Rik | inactive: -2.35 |
| GGCUUCUUCCUUGAGAGUCTT against Tgfa | inactive: -0.114 |
| GCAGCCUUAUACUUCUCACTT against E330008O22Rik | inactive: -1.49 |
| AGUGCUCAUUAACUGUCGCTT against Snrpd2 | inactive: -2.74 |
| CCUCAAGGGCUGAUGCAUGTT against Gpkow | inactive: -1.27 |
| GGCUGAAGAGAAUCUUUUATT against Il9r | inactive: 1.54 |

| Sequence | z-score |
| --- | --- |
| CGGAUGUGAGAAAAGAGUUTT against Ndufc1 | inactive: 1.34 |
| GGUCAAGAGGAGGGUACCUTT against A430097D04Rik | inactive: -0.603 |
| GGUCACUUCCUUAAUUUUATT against Disc1 | inactive: 0.597 |
| GGGACAAUCAACACAAAAUTT against Ythdf3 | inactive: 1.76 |
| GGAAGAUGCCAUUUAUUGGTT against Sgpl1 | inactive: 0.24 |
| CGGAAUCUGACUGGUAUCGTT against Banp | inactive: -2.47 |
| CGGACUCGAUAACCAUCAGTT against Smurf1 | inactive: -0.26 |
| GGAUCUCUGUUUCUCAAAATT against Slc19a3 | inactive: 0.771 |
| GGUGCAGCACUUCAAAGUGTT against Grap | inactive: -0.586 |
| GGCUGGUUGAAGGUUGUGATT against Epdd1 | inactive: 0.104 |
| GGGACUACCAUUUGUUAAUTT against Tktl1 | inactive: 0.41 |
| GGAAGAAGCCCAAGGACUUTT against Donson | inactive: -2.4 |
| GCAACAAAUUCCUAGGCACTT against Pmp2 | inactive: 0.278 |
| CCAAAGUUAUCUUUUAUGGTT against D830013H23Rik | inactive: 0.806 |
| GCCAUUCCGGCAGUAUUACTT against Pdcd7 | inactive: 0.524 |
| GGAGACUGUGGAUUUAAUUTT against Sult1a1 | inactive: 0.69 |
| CGUAAUUGAUAAAACGGGATT against E130012K09 | inactive: 0.338 |
| CGGCGUAUGAGGAUUGGUUTT against Atp8b1 | inactive: 1.93 |
| GAGCCAGUCCAUCAUGAUGTT against Pdgfrl | inactive: -0.845 |
| GGAUCCUGCAUCUUAUAGUTT against Tcstv3 | inactive: 0.114 |
| GGAACGAGAUGCAGCUAUCTT against Cry1 | inactive: -1.01 |
| GGCCCUUUGAGUCGUUCCUTT against 9130211I03Rik | inactive: -0.516 |
| GCAGGUUUGAUAUAAAAUCTT against Uble1b | inactive: 2.01 |
| GGGACAAAUGGAUCAAGAUTT against Ganab | inactive: -0.181 |
| GGUGUGCAACCUGUUGCUCTT against Sn | inactive: 0.271 |
| GGAAAAUCCAGAGGCUACGTT against Creg | inactive: -2.06 |

| Sequence | z-score |
| --- | --- |
| GGUGGCACAUCAGUGUUUGTT against 1700113O17Rik | inactive: -0.247 |
| GGCUGAGAAUGACAGUUCCTT against Ars2 | inactive: -1.81 |
| GGUUUGGGAUGUUCGAGUUTT against Slc25a1 | inactive: -0.836 |
| CCUUCAUCUAGAAACCAAGTT against 2810446P07Rik | inactive: 0.942 |
| GCGCAAAAGGACCUAUGAGTT against Rela | inactive: -1.57 |
| GGAACCACACAUUUAAAAUTT against Ctsh | inactive: -0.0783 |
| GGAUUAUGAGAUGAAAUCUTT against Serpinb9b | inactive: 0.871 |
| GCUUCGAUACCUUCAAACCTT against Epb7.2 | inactive: 0.431 |
| GCUGACCAAAGUCACUCCCTT against Aqp1 | inactive: -0.128 |
| GGAAUGCAAACAGCACUUGTT against Rab33b | inactive: 0.106 |
| GGGAGAUCCGAAGUGGAUCTT against Sult2a2 | inactive: 1.28 |
| GGGAACAAAAACAUAAAAGTT against Otub2 | inactive: 0.356 |
| GGCUGAGGUCACCAUCAUCTT against Lrrc16 | inactive: -1.12 |
| GGAAAGACCAUUCUGUAUUTT against Wbscr24 | inactive: -0.897 |
| GCUAUGACACGAGAAGGCATT against Mcpt7 | inactive: -0.776 |
| CGCGUCAUUAUCAAGUGCCTT against Dnpep | inactive: 0.138 |
| GGAGUGAAAUUUACUGGGUTT against Hdgfrp3 | inactive: 1.78 |
| CCUGUAAACCAGAUAAGCCTT against Defb1 | inactive: 0.287 |
| GGAGGUCUUUUCAGAAUAATT against 4930455C21Rik | inactive: -1.92 |
| GGGCACAAAGAUAUGAAUATT against Lgals3bp | inactive: 1.49 |
| GGAAGGAUCUAAUCUUUUUTT against Vamp2 | inactive: 0.376 |
| GGGAGACUGCUUCUAGCUGTT against Ncdn | inactive: 0.478 |
| GGAAGCUUCAGGAGUAUAUTT against Sdc2 | inactive: -0.853 |
| GUGUGACUUUUUGACUAUUTT against Klhl2 | inactive: 1.54 |
| GUGUUUACACCCAAAAUGCTT against Olfr906 | inactive: 1.75 |
| GGGUAUGGAUUCAGGUAGATT against Ppp3r2 | inactive: 0.326 |

| Sequence | z-score |
| --- | --- |
| CGGCCUGACAUCAACCUUGTT against BC021381 | inactive: -0.799 |
| UUUUCACCGAACAAAGAACTT against AI132487 | inactive: 0.0907 |
| GGCUUUGAAAGUUACCGGGTT against Sipa1 | inactive: 0.436 |
| GCAGGAGUCACCAUACUACTT against 2010004J24Rik | inactive: -0.142 |
| CCCUGAACAAUCUGCUACATT against E130303B06Rik | inactive: 0.467 |
| GGGCCAGUACUGUAGCUGUTT against Golga3 | inactive: 0.722 |
| CGUGUCAGCUAUUCAUUAATT against Osbpl5 | inactive: -0.0539 |
| GGAAAACUGCGUUUGGAAATT against BC034753 | inactive: 1.73 |
| GGAGAUGACAAAUCUAGUGTT against DXImx49e | inactive: 1.47 |
| CGACAAGACGAACAUCAAGTT against Nrn1 | inactive: 0.903 |
| GGGCUAUCUAUCAUAGUUUTT against Scp2 | inactive: -1.27 |
| CCCAUGAACCUUAUUUGAATT against D030070L09Rik | inactive: 0.716 |
| GGACAACAUUGCUAAAUUUTT against Es22 | inactive: -0.514 |
| GCCACCCUACCAUAGCAAATT against 3110007P09Rik | inactive: 1.17 |
| GACAGUGCACGAUCUGAUUTT against Pfn3 | inactive: 0.0097 |
| GGCAGUACUGUCCAGAUGATT against 2210006M16Rik | inactive: -3.26 |
| CCUUUUGAUGCAUCCCGUCTT against Rya3 | inactive: 0.681 |
| GGAGUAGUAGCUGAAUUUGTT against Abcc3 | inactive: 1.88 |
| GAGGUUACUUCAAAGACAATT against 3110004H13Rik | inactive: -0.98 |
| CCUCCUUUUUUCUCUGUCUTT against Ugt1a12 | inactive: -1.12 |
| GGCUAGAGAGGAUCUUGAGTT against Cdkn2a | inactive: 1.21 |
| GCAUUACAUAACAUGGCCATT against Sumo3 | inactive: 0.0802 |
| GGCCUGAUCAAGUUUCUGCTT against 1110007H17Rik | inactive: -0.191 |
| GGUCAUCAACCAAUUCCAGTT against 2310003P10Rik | inactive: 0.0666 |
| GGACAUUGAGAACAUUAUCTT against Caln1 | inactive: 0.302 |
| CGAACAACAGAGUAAAAUUTT against Ank2 | inactive: 0.467 |

Looked up above:
z-score, CCCAUGAACCUUAUUUGAATT against D030070L09Rik is entered as inactive: 0.716
z-score, CGAACAACAGAGUAAAAUUTT against Ank2 is entered as inactive: 0.467
z-score, CCCUGAACAAUCUGCUACATT against E130303B06Rik is entered as inactive: 0.467
z-score, GCAUUACAUAACAUGGCCATT against Sumo3 is entered as inactive: 0.0802
